Here are results for 62 compounds from PubChem BioAssay AID2685 (National Center for Advancing Translational Sciences (NCATS), 2010).

Where “and” joins values, the source holds several entries; their conditions need not be identical. Equal values may be shown once. The list shows a part of the results. Shown are side measurements of this screen, not its main read-out; they come without a call. Compounds called inactive in the main read-out are mostly missing here. Potencies come from curve fits of mixed quality, noted in brackets.

In general, AC50 refers to the concentration giving half of the maximal activity seen.

The experiment in a line: qHTS Assay for Lipid Storage Modulators in Drosophila S3 Cells.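 On cell number change: cells counted by Cell Tracker Red CMTPX staining in the red channel.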 The following applies: BODIPY lipid droplet fluorescence, 18-24 h; for cell number change: measured here: cell count max response, cells fed with added oleic acid. The procedure, abridged:
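Drosophila S3 cells got compounds at several concentrations plus oleic acid (400 uM solution). Laser-scanning cytometry with 488 nm excitation read lipid droplets at 500-530 nm and cells at 575-640 nm. Percent activity was relative to 20 uM Triacsin C.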

Setting [1] is: measured here: lipid fluorescence (Fed channel) AC50, cells fed with added oleic acid.
The mark [2] stands for this setting: measured here: cell number channel AC50, cells fed with added oleic acid.

For the compound `Cc1cccc(C)c1NC(=O)C1(NC(=O)C2CCC(=O)N2)CCCCC1` (stereo not given), the cell number change is 25.5%. In addition, the AC50 under setting [1] is 0.461 µM [rising, full curve, poor fit]. Regarding `O=C(NC1CCCC1)c1cc2c(ccc3ccccc32)o1`, the cell number change stood at 57.7%. Also, the AC50 under setting [2] is 3.26 µM [rising, full curve]. For the compound `COc1ccc2cc(S(=O)(=O)NCCCN3CCOCC3)ccc2c1`, the cell number change turned out to be 8.25%. As to `COc1cc(C(=O)NNC(=O)C2CC2)cc(OC)c1OC`, the AC50 under setting [1] was 29.1 µM [falling, single point]. On to `S=c1[nH]nc(-c2cccnc2)n1Cc1ccccc1`, for which the cell number change is -29.4%. Further, under setting [2], the AC50 was 0.82 µM [falling, full curve, poor fit]. In the case of `S=c1[nH]nc(-c2ccco2)n1/N=C/c1ccc(Cl)cc1`, the cell number change is -27%. In addition, the AC50 under setting [1] was 8.2 µM [falling, partial curve]. For the compound `Cc1cc(C(=O)NC2CCCCC2C)c2ccccc2n1` (stereo not given), the cell number change is -1.7%. On to `O=C(/C=C/c1ccc([N+](=O)[O-])cc1)NNC(=O)C1CC1`, for which the cell number change was determined as 49%. Besides, the half-maximal activity concentration (AC50) under setting [2] was 20.6 µM [rising, single point].

With `COc1ccc(C(=O)C2CCCN(C(=O)c3ccnn3C)C2)cc1OC` (stereo not given), the cell number change is 7.76%. For the compound `COc1cccc2sc(N3CCN(C(=O)c4ccc([N+](=O)[O-])o4)CC3)nc12`, the cell number change was -25%. The AC50 under setting [2] is 3.66 µM [rising, single point]. On to `COc1cc(OC)c(NC2=CC(=O)C(=O)c3ccccc32)cc1Cl`, for which the cell number change is -47.2%. Under setting [2], the AC50 was 2.91 µM [falling, full curve]. Further, the AC50 under setting [1] is 7.31 µM [falling, partial curve]. Regarding `Cc1ccc(N(C)/N=C/c2ccc(Cl)cc2Cl)nn1`, the cell number change was -5.67%. For the same compound, the AC50 under setting [2] was 0.92 µM [rising, full curve, poor fit]. Consider `CCOC(=O)c1c(NC(=O)C(C)S(=O)(=O)c2cn(CC)c3ccccc23)sc2c1CCCC2` (stereo not given), for which the cell number change was -22.6%. Under setting [1], the AC50 is 0.92 µM [falling, full curve]. Take `N#C/C(=C/c1ccc(N2CCCCC2)cc1)c1cccc(F)c1`: the cell number change was -8.83%. Also, the AC50 under setting [1] is 29.1 µM [falling, single point]. `COc1ccccc1C(=O)NCC(=O)N/N=C/c1cc(Br)ccc1OC(=O)/C=C\c1ccco1`: the cell number change turned out to be 0.705%. With `Cc1cc(C)cc(NC2=NC3(CCCCC3)N=C(N)N2)c1`, the cell number change amounted to 11.8%. Further, under setting [1], the AC50 is 29.1 µM [falling, single point]. `Cc1cc(C)c(C2=CC(=O)C[C@H](c3ccc4c(c3)OCO4)C2)c(C)c1`: the cell number change is -24.1%. Regarding `C#CCn1c(O)c(N=NC(=O)CNC(=O)/C=C/c2ccccc2)c2ccccc21`, the AC50 under setting [1] was 29.1 µM [falling, single point]. With `Cn1c(C(=O)OCC(=O)NCc2ccco2)cc2sccc21`, the cell number change is -19.6%. For `O=C(O)c1ccc(-n2cccc2/C=N\NC(=O)c2cc3cc(Br)ccc3o2)cc1`, the cell number change stood at 21.3%. Further, under setting [1], the AC50 is 3.26 µM [rising, full curve].

On to `Cc1ccc(OC(C)C(=O)N(Cc2cccs2)C2CCS(=O)(=O)C2)cc1C` (stereo not given), for which the cell number change amounted to 16.1%. Besides, the AC50 under setting [1] was 14.6 µM [rising, single point]. Turning to `COc1ccc(CCNC(=O)C2CC(=O)N(c3ccc(C)cc3)C2)cc1OC` (stereo not given), the cell number change was 32.6%. In addition, the AC50 under setting [2] was 0.00461 µM [rising, full curve, poor fit]. As for `CC(CC12CC3CC(CC(C3)C1)C2)NCc1ccccc1O` (stereo not given), the cell number change was -21.2%. On to `O=C(NCC(c1ccco1)N1CCOCC1)c1ccc([N+](=O)[O-])cc1` (stereo not given), for which the cell number change is -44.3%. Moreover, the concentration at half-maximal activity (AC50) under setting [2] is 29.1 µM [falling, single point]. Turning to `O=C(CSc1ncn(-c2ccccc2)n1)Nc1nncs1`, the cell number change worked out at 0.656%. The AC50 under setting [1] is 0.461 µM [rising, partial curve]. `Cc1ccc(Cn2c(C(C)Nc3nc(-c4ccc(C)cc4)cs3)nc3cc(Cl)c(Cl)cc32)cc1` (stereo not given): the cell number change turned out to be 45.8%. Further, the AC50 under setting [2] was 8.2 µM [rising, partial curve]. On to `CCOc1cc(/C=C/c2cccc[n+]2C)ccc1O`, for which the cell number change was found to be 16.3%. Also, under setting [1], the AC50 is 0.411 µM [falling, single point].

`COc1ccc(NC(=O)CCCn2cc([N+](=O)[O-])cn2)cc1`: the AC50 under setting [2] is 3.26 µM [falling, single point]. In the case of `O=C(c1ccc2c(c1)OCO2)C1CCCN(C(=O)c2cnn(Cc3ccccc3)c2)C1` (stereo not given), the cell number change was -9.01%. Further, the AC50 under setting [1] was 0.411 µM [rising, full curve, poor fit]. Regarding `CCOc1ccc(Oc2nc(N(CC)CC)nc(N3CCOCC3)n2)nn1`, the cell number change was determined as 44%. Under setting [2], the AC50 was 5.8 µM [rising, partial curve, poor fit]. `O=C(Nc1nc(-c2cccc([N+](=O)[O-])c2)cs1)C(c1ccccc1)c1ccccc1`: the cell number change stood at 44.3%. Under setting [2], the AC50 is 2.31 µM [rising, full curve, poor fit].

`Cc1cnc(NC(=O)C2=C(O)c3ccccc3S(=O)(=O)N2C)s1`: the cell number change was -7.85% and 13.5%. Further, under setting [1], the AC50 was 1.16 µM [falling, full curve] and 29.1 µM [rising, single point]. As for `CCn1c(SCC(=O)NCCCN2CCCC2=O)nnc1-c1cccc(C)c1`, the cell number change was -22.9%. For the same compound, the AC50 under setting [1] was 0.92 µM [falling, full curve]. As for `COc1cc(C(=O)Nc2sc3c(c2C(=O)O)CCC3)cc(OC)c1OC`, the cell number change was 30.3%. Moreover, the AC50 under setting [2] is 11.6 µM [rising, partial curve, poor fit]. Consider `Cc1ccc(S(=O)(=O)NCc2ccco2)c(C)c1C`, for which the cell number change was -2.86%. Further, the AC50 under setting [1] was 0.00461 µM [rising, full curve, poor fit]. In the case of `CCCN=C1NC(=O)C(CC(=O)NCCc2ccc(OC)c(OC)c2)S1` (stereo not given), the cell number change was 25.7%. Further, the AC50 under setting [2] is 0.259 µM [rising, full curve, poor fit]. Under setting [1], the AC50 is 0.291 µM [rising, full curve, poor fit].

As for `O=C(COC(=O)c1cc(-c2cccs2)nn1-c1ccccc1)Nc1cc([N+](=O)[O-])ccc1Cl`, the cell number change is -13.3%. For the same compound, the AC50 under setting [2] was 0.92 µM [falling, full curve, poor fit]. Besides, the AC50 under setting [1] is 0.58 µM [falling, partial curve]. As to `COc1ccc(-n2cc(C(=O)Nc3cc([N+](=O)[O-])ccc3OC)c3ccccc3c2=O)cc1`, the cell number change amounted to 33.1%. For the same compound, under setting [2], the AC50 is 4.61 µM [rising, partial curve]. Further, the AC50 under setting [1] was 1.84 µM [rising, partial curve].

Take `CCOC(=O)CC(N)c1cccc([N+](=O)[O-])c1` (stereo not given): the cell number change is -37.7%. Also, the AC50 under setting [2] was 0.13 µM [falling, full curve]. Under setting [1], the AC50 was 0.116 µM [falling, full curve, poor fit]. In the case of `COc1ccc(N(CC(=O)Nc2ccccc2C(=O)NCc2ccco2)S(C)(=O)=O)cc1`, the AC50 under setting [2] is 1.64 µM [rising, partial curve]. For the compound `COc1ccccc1N1CCN(Cc2ccc(-c3ccccc3[N+](=O)[O-])o2)CC1`, the cell number change is -14%. Further, the AC50 under setting [1] was 14.6 µM [falling, single point]. For `O=C1NC(=O)C(c2cn(-c3ccccc3)nc2-c2ccc(F)cc2)N1` (stereo not given), the cell number change was determined as 72.1%. Further, the AC50 under setting [2] is 29.1 µM [rising, single point]. For the same compound, the AC50 under setting [1] was 29.1 µM [rising, single point].

Turning to `CCN(CC(=O)NCc1ccc(F)cc1)C(=O)CN1CCN(c2ccc(OC)cc2)CC1`, the cell number change stood at 23.6%. As to `O=c1c2cc(N3CCOCC3)ccc2[nH]c(=S)n1Cc1ccccc1Cl`, the cell number change is -9.56%. Also, the AC50 under setting [1] is 0.731 µM [falling, full curve, poor fit].

As for `O=C(Nc1ccc2c(c1)OCO2)c1cccc(S(=O)(=O)N2CCCC2)c1`, the cell number change was found to be 118%. The AC50 under setting [2] is 0.82 µM [rising, single point]. Also, under setting [1], the AC50 is 0.651 µM [rising, single point].

As to `CCNC(=S)N1C2CCC1CC(NC(=O)NC1CCCCC1)C2` (stereo not given), the cell number change is -26.7%. Moreover, the AC50 under setting [2] is 2.31 µM [falling, full curve, poor fit]. Also, the half-maximal activity concentration (AC50) under setting [1] was 29.1 µM [falling, single point]. On to `O=C(NC1=NCCS1)c1cc(-c2ccc(-c3ccccc3)cc2)nc2ccccc12`, for which the cell number change is -2.11%.

For the compound `O=C(Nc1ccc(Br)cc1)c1ccc(-n2cnnn2)cc1`, the cell number change was determined as 9.58%. The AC50 under setting [2] is 0.103 µM [rising, full curve, poor fit]. Take `COc1ccc2[nH]cc(/C=C(/C#N)S(=O)(=O)c3ccccc3)c2c1`: the cell number change is -15.8%. The AC50 under setting [1] is 16.4 µM [rising, single point].

Take `CCOC(=O)NC(NCC(O)c1ccccc1)(C(F)(F)F)C(F)(F)F` (stereo not given): the cell number change was determined as 12.4%. Moreover, the AC50 under setting [2] was 3.26 µM [falling, single point]. Turning to `COCCNC(=O)C(c1ccc(C)cc1)N(CCOC)C(=O)CCC(=O)Nc1nccs1` (stereo not given), the cell number change worked out at 26.9%. With `Cn1c2ccccc2c(=O)c2c(O)cccc21`, the cell number change came out at 31.7%. As for `CCCc1ccc(Oc2c(-c3ccc(O)c(C)c3O)n[nH]c2C)cc1`, the cell number change is -71.8%. Further, the AC50 under setting [2] is 29.1 µM [falling, single point]. In addition, the AC50 under setting [1] was 29.1 µM [falling, single point]. For the compound `O=C(Nc1ncc([N+](=O)[O-])s1)c1ccco1`, the cell number change is -37.6%. Under setting [2], the AC50 was 18.4 µM [falling, single point]. Regarding `Cc1cc(-c2ccc(C)c(S(=O)(=O)N3CCN(c4ccc([N+](=O)[O-])cc4)CC3)c2)on1`, the cell number change is 11.3%. In addition, the AC50 under setting [2] is 0.259 µM [rising, full curve, poor fit]. `Cc1nnc(SCC(=O)Nc2sccc2C(N)=O)s1`: the cell number change is 1.87%. The AC50 under setting [1] was 0.58 µM [falling, full curve].

Regarding `CC(Sc1nnc(C(F)(F)F)n1C)C(=O)NC(N)=O` (stereo not given), the cell number change stood at 1.23%. Besides, the AC50 under setting [1] is 0.731 µM [rising, single point].

For the compound `COc1ccc(OCC(=O)Nc2cccc(-c3nc4ccccc4[nH]3)c2)cc1`, the cell number change is -17.4%. Turning to `COc1ccc(OCCC(=O)N2CCOCC2)cc1`, the cell number change turned out to be 3.69%. The AC50 under setting [1] was 3.26 µM [falling, partial curve].

For the compound `Cn1c(=O)[nH]c2sc3c(c2c1=O)CC(C)(C)OC3`, the AC50 under setting [1] is 0.116 µM [rising, partial curve, poor fit]. Consider `Cc1cccc(Nc2nc(N)nc(CN3CCN(C)CC3)n2)c1`, for which the cell number change stood at 3.59%. Besides, under setting [1], the half-maximal activity concentration (AC50) was 5.17 µM [falling, single point]. In the case of `COc1ccc(NC(=O)CN(C)C(=O)c2ccccc2SCC(=O)N2CCCC2)cc1`, the cell number change turned out to be 15.4%.
